This note sets out measurements from publication PMC3008712.

These are yes or no findings as the source states them, for the method shown. Some results given as binding are weak or reduced against the parent protein; the word gives no strength.

In experiment [1] the target is recombinant human γD-crystallin (human) (UniProt P07320). Put plainly: non-reducing SDS-PAGE; 1 mg/ml HGDC in 5 mM sodium phosphate pH 7.0, not irradiated (0 min); 15% gel, sample buffer without β-mercaptoethanol; both purified.
Experiment [2] concerns the target T1, recombinant human γD-crystallin (human), P07320.
T1 chain: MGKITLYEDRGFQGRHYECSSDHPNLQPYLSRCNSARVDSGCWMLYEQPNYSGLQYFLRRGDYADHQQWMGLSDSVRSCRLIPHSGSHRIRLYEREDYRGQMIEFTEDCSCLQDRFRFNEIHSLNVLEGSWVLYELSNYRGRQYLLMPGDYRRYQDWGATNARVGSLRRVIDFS
The experiment can be described thus: non-reducing SDS-PAGE; 1 mg/ml HGDC in 5 mM sodium phosphate pH 7.0, UV-C irradiated (254 nm, 1,850 μW/cm^2) for 10-60 min; 15% gel, sample buffer without β-mercaptoethanol; band intensities by Image-J; both purified. The conditions noted are these: remark: other sources report otherwise.

Turning to “recombinant human γD-crystallin (from UniProt P07320 1-174)”, in experiment [1], the binding entry is reported as “binds weakly”.

B1: recombinant human γD-crystallin, P07320 1-174 (natural protein)
chain: T1 chain
As to B1, the binding entry in experiment [2] is listed as “binds”.
